PMC9985612
These are yes or no findings as the source states them, for the method shown. Binding seen in cells or lysates may run through a third protein. Some results given as binding are weak or reduced against the parent protein; the word gives no strength. For some of these results: Tags and fused reporters may be left off the sequences shown. One block for each molecule: values may come before it.

Amino acid sequences for entries named in this document (tags omitted).
UniProt P46940: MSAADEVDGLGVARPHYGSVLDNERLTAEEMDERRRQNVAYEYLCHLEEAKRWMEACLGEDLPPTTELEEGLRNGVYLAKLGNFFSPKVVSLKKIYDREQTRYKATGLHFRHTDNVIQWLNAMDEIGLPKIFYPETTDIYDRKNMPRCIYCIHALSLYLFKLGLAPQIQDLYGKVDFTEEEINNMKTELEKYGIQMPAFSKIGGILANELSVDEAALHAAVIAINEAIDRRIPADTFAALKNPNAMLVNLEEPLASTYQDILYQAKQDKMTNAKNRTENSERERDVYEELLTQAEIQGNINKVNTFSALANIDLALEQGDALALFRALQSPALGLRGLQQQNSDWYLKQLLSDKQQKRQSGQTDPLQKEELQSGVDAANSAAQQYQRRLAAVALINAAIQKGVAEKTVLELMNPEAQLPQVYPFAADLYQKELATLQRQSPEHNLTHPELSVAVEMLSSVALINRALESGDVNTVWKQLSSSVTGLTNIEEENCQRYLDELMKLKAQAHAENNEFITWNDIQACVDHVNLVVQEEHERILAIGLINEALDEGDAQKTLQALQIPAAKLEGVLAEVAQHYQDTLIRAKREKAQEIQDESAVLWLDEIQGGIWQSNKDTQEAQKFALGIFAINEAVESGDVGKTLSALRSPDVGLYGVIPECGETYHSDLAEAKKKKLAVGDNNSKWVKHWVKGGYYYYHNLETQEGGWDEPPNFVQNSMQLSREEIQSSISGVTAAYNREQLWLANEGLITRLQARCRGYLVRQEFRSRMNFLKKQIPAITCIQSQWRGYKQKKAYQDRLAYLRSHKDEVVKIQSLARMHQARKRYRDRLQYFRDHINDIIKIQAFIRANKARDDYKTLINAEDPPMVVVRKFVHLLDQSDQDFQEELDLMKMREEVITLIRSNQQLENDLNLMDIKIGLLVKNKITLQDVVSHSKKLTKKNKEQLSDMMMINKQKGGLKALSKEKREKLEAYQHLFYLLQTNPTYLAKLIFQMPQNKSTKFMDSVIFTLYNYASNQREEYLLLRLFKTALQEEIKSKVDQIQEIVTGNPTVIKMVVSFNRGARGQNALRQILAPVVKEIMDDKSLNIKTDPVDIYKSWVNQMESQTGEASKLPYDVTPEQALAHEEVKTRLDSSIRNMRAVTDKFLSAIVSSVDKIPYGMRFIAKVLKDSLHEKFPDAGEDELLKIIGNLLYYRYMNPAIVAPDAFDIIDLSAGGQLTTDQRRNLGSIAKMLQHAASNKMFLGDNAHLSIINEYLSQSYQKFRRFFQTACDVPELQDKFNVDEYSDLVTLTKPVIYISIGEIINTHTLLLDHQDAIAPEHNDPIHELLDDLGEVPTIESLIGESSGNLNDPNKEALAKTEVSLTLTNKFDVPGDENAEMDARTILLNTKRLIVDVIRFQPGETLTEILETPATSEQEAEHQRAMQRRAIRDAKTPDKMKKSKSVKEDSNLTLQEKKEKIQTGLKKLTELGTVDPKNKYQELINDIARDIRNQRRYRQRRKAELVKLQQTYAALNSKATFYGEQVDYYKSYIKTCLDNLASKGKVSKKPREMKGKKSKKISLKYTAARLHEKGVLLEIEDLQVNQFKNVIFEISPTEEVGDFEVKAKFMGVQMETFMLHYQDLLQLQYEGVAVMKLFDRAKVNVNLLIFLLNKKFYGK

Columns and labels:
[1] = biological target: T1, Flag-TRIM56 (tripartite motif containing 56) (UniProt Q9BRZ2); test: co-IP; anti-Flag antibody, lysate of U251 cells transfected with Flag-TRIM56; Protein A + G magnetic beads, overnight at 4 °C; immunoblot
T1 sequence: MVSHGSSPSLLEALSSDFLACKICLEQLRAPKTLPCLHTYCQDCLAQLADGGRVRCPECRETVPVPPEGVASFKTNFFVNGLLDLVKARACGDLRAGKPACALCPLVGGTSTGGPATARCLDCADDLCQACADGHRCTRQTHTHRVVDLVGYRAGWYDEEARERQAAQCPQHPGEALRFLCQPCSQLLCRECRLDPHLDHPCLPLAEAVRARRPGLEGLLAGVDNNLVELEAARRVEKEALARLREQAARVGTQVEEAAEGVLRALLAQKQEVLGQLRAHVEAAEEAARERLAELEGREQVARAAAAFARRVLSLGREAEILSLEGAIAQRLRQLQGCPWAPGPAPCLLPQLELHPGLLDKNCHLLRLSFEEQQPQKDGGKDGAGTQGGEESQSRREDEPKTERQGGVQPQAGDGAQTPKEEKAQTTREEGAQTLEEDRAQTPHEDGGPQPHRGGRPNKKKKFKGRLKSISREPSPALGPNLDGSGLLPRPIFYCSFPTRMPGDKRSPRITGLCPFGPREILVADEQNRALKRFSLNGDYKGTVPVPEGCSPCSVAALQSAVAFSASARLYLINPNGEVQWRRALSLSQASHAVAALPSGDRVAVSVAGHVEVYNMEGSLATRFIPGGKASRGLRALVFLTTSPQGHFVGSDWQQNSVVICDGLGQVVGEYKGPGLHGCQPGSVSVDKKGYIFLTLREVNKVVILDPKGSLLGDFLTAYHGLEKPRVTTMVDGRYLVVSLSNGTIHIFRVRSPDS

[2] = biological target: IQ motif containing GTPase activating protein 1 (IQGAP1), endogenous (human (endogenous in U251 and U87)) (UniProt P46940); test: co-IP; anti-IQGAP1 antibody, lysate of U87 cells, endogenous proteins; Protein A + G magnetic beads, overnight at 4 °C; immunoblot
[3] = biological target: Myc-IQGAP1 (UniProt P46940); test: co-IP; U251 cells co-transfected with Myc-IQGAP1 and Flag-TRIM56_N, Flag-TRIM56_C or Flag-TRIM56_WT; MG132 10 μM; Protein A + G magnetic beads, overnight at 4 °C; immunoblot

Molecule: IQ motif containing GTPase activating protein 1 (IQGAP1), endogenous (from UniProt P46940 1-1657)
binding [1]: binds

B1: TRIM56 (tripartite motif containing 56), endogenous (protein, UniProt Q9BRZ2 1-755)
chain: T1 sequence
binding [2]: binds

The next lines start with the values.

binding [3]: binds
B2: Flag-TRIM56_N (1-250 aa, containing the RING finger domain) (domain or fragment, UniProt Q9BRZ2 1-250)
chain: MVSHGSSPSLLEALSSDFLACKICLEQLRAPKTLPCLHTYCQDCLAQLADGGRVRCPECRETVPVPPEGVASFKTNFFVNGLLDLVKARACGDLRAGKPACALCPLVGGTSTGGPATARCLDCADDLCQACADGHRCTRQTHTHRVVDLVGYRAGWYDEEARERQAAQCPQHPGEALRFLCQPCSQLLCRECRLDPHLDHPCLPLAEAVRARRPGLEGLLAGVDNNLVELEAARRVEKEALARLREQAAR

binding [3]: no binding
B3: Flag-TRIM56_C (251-755 aa) (domain or fragment, UniProt Q9BRZ2 251-755)
chain: VGTQVEEAAEGVLRALLAQKQEVLGQLRAHVEAAEEAARERLAELEGREQVARAAAAFARRVLSLGREAEILSLEGAIAQRLRQLQGCPWAPGPAPCLLPQLELHPGLLDKNCHLLRLSFEEQQPQKDGGKDGAGTQGGEESQSRREDEPKTERQGGVQPQAGDGAQTPKEEKAQTTREEGAQTLEEDRAQTPHEDGGPQPHRGGRPNKKKKFKGRLKSISREPSPALGPNLDGSGLLPRPIFYCSFPTRMPGDKRSPRITGLCPFGPREILVADEQNRALKRFSLNGDYKGTVPVPEGCSPCSVAALQSAVAFSASARLYLINPNGEVQWRRALSLSQASHAVAALPSGDRVAVSVAGHVEVYNMEGSLATRFIPGGKASRGLRALVFLTTSPQGHFVGSDWQQNSVVICDGLGQVVGEYKGPGLHGCQPGSVSVDKKGYIFLTLREVNKVVILDPKGSLLGDFLTAYHGLEKPRVTTMVDGRYLVVSLSNGTIHIFRVRSPDS
